No signal at the amounts used counts as a negative.
Biological target: APOBEC3A (A3A) (UniProt P31941)
Test: activity assay
Settings: deamination undetectable, substrate not processed, binding itself not measured, purified recombinant protein, single-stranded DNA, variant of 202mer ssDNA

Amino acid sequences for entries named in this document (tags omitted). A change or cut given only in a name is not applied to a line headed by its entry.
UniProt P31941: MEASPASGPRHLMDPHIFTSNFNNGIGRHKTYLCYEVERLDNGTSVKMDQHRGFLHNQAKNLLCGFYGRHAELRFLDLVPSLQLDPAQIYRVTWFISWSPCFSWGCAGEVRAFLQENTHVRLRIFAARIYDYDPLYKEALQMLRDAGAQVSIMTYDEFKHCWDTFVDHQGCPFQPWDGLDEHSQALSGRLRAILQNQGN

Sequence | activity on this sequence (all C replaced by 5-propynyl-C) | activity on this sequence (all C replaced by 5-carboxylcytosine)
TTGATATGGGTTATGAATGAAGTAGTCGATCTTTCATCATATTCTAGATCCCTCTGAAAAAATCTTCCGAGTTTGCTAGGCAGTGATACATAACTCTTTTCCAATAATTGGGGAAGTCATTCAAATCTATAATAGGTTTCAGATTTAATTCTGACTGTAGCTGCTGAAACGTTGCGGAGTGTTAAGGTATATGAGTAGATGA [202mer ssDNA, 5pyC] | not active | 
TTGATATGGGTTATGAATGAAGTAGTCGATCTTTCATCATATTCTAGATCCCTCTGAAAAAATCTTCCGAGTTTGCTAGGCAGTGATACATAACTCTTTTCCAATAATTGGGGAAGTCATTCAAATCTATAATAGGTTTCAGATTTAATTCTGACTGTAGCTGCTGAAACGTTGCGGAGTGTTAAGGTATATGAGTAGATGA [202mer ssDNA, 5caC] |  | not active

— patent US20230183793
